Assay results published in patent publication US6147204.
pIC50: −log10 of the molar value. For some of these results: For at least one entry, the source does not settle the construct or the ends of the probe.

Legend:
thrombin = experiment: inhibition of the protein; conditions: cholesterol, 7.08 ug/300 ul, control 18-20 s, 50 mM Tris, 100 mM NaCl, label: fluorescein (approximately 50% of molecules), single-stranded DNA
[1] = tested on: VEGF (vascular endothelial growth factor); experiment: binding assay; conditions: 5'-dialkylglycerol (DAG), embedded in DSPC:cholesterol liposome; 1 uM significantly inhibited VEGF-induced vascular permeability in guinea pigs (Miles assay); variant of NX213
[2] = tested on: VEGF (vascular endothelial growth factor); experiment: activity in cells; conditions: dialkylglycerol (DAG), embedded in DSPC:cholesterol liposome; KS cell proliferation; variant of NX278-liposome

CAGTCCGTGGTAGGGCAGGTTGGGGTGACTTCGTGGAAT [NX232 liposome (DSPC:Chol 2:1)]
functional effect of the aptamer (thrombin; embedded in liposome, liposome preparation A, preparation B 56-59 s, 1 mM MgCl2, pH 7.4, 37 C, variant of NX232): active

CAGTCCGTGGTAGGGCAGGTTGGGGTGACTTCGTGGAAT [NX232]
functional effect of the aptamer (thrombin; unsonicated, sonicated 45-50 s, 1 mM MgCl2, 0.1% PEG8000, pH 7.4, 37 C, fibrinogen 2.5 mg/ml): active

TTTTACCCUGAUGGUAGACGCCGGGGUGTTTTT [NX278-liposome]
binding result [1]: binds

TTTTGUCGGUACGGAGUGGACCGUCACGTTTTT [scNX278-liposome]
pIC50 [2]: < 6.00
